Some of the results follow.
Tests used:
Assay in all cases: glycan array binding signal (z-score within array); higher = stronger binding
Settings in all cases: glycan notation: IUPAC condensed, linker removed
[1] = molecular target: Neu5Ac(a2-6)Gal(b1-3)GlcNAc(b1-3)[Gal(b1-4)GlcNAc(b1-6)]Gal(b1-4)Glc
How it was run: (§1)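 Negative Z-scores can be read as non-binding. The Z-score is calculated within each array and then averaged across arrays of one protein sequence at different concentrations or buffers and across linkers. Arrays, 3228 in all, were curated from the Consortium for Functional Glycomics database and kept only where the protein sequence was available.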

Neu5Ac(a2-6)Gal(b1-4)Glc = molecular target: Neu5Ac(a2-6)Gal(b1-4)Glc
How it was run: as §1

[2] = molecular target: Neu5Ac(a2-6)Gal(b1-4)GlcNAc
How it was run: as §1

[3] = molecular target: Neu5Ac(a2-6)Gal(b1-4)GlcNAc(b1-2)Man
How it was run: as §1

[4] = molecular target: Neu5Ac(a2-6)Gal(b1-4)GlcNAc(b1-2)Man(a1-3)Man(b1-4)GlcNAc(b1-4)GlcNAc
How it was run: as §1

[5] = molecular target: Neu5Ac(a2-6)Gal(b1-4)GlcNAc(b1-2)Man(a1-3)[Gal(b1-4)GlcNAc(b1-2)Man(a1-6)]Man(b1-4)GlcNAc(b1-4)GlcNAc
How it was run: as §1

[6] = molecular target: Neu5Ac(a2-6)Gal(b1-4)GlcNAc(b1-2)Man(a1-3)[GlcNAc(b1-2)Man(a1-6)]Man(b1-4)GlcNAc(b1-4)GlcNAc
How it was run: as §1

[7] = molecular target: Neu5Ac(a2-6)Gal(b1-4)GlcNAc(b1-2)Man(a1-3)[GlcNAc(b1-2)Man(b1-4)GlcNAc(b1-2)Man(a1-6)]Man(b1-4)GlcNAc(b1-4)GlcNAc
How it was run: as §1

[8] = molecular target: Neu5Ac(a2-6)Gal(b1-4)GlcNAc(b1-2)Man(a1-3)[GlcNAc(b1-4)][Neu5Ac(a2-6)Gal(b1-4)GlcNAc(b1-2)Man(a1-6)]Man(b1-4)GlcNAc(b1-4)GlcNAc
How it was run: as §1

[9] = molecular target: Neu5Ac(a2-6)Gal(b1-4)GlcNAc(b1-2)Man(a1-3)[Man(a1-6)]Man(b1-4)GlcNAc(b1-4)GlcNAc
How it was run: as §1

[10] = molecular target: Neu5Ac(a2-6)Gal(b1-4)GlcNAc(b1-2)Man(a1-3)[Neu5Ac(a2-3)Gal(b1-4)GlcNAc(b1-2)Man(a1-6)]Man(b1-4)GlcNAc(b1-4)GlcNAc
How it was run: as §1

[11] = molecular target: Neu5Ac(a2-6)Gal(b1-4)GlcNAc(b1-2)Man(a1-3)[Neu5Ac(a2-6)Gal(b1-4)GlcNAc(b1-2)Man(a1-6)]Man(b1-4)GlcNAc(b1-4)GlcNAc
How it was run: as §1

[12] = molecular target: Neu5Ac(a2-6)Gal(b1-4)GlcNAc(b1-2)Man(a1-3)[Neu5Ac(a2-6)Gal(b1-4)GlcNAc(b1-2)Man(a1-6)]Man(b1-4)GlcNAc(b1-4)[Fuc(a1-6)]GlcNAc
How it was run: as §1

[13] = molecular target: Neu5Ac(a2-6)Gal(b1-4)GlcNAc(b1-2)Man(a1-6)Man(b1-4)GlcNAc(b1-4)GlcNAc
How it was run: as §1

[14] = molecular target: Neu5Ac(a2-6)Gal(b1-4)GlcNAc(b1-2)Man(a1-6)[Gal(b1-4)GlcNAc(b1-2)Man(a1-3)]Man(b1-4)GlcNAc(b1-4)GlcNAc
How it was run: as §1

[15] = molecular target: Neu5Ac(a2-6)Gal(b1-4)GlcNAc(b1-2)Man(a1-6)[GlcNAc(b1-2)Man(a1-3)]Man(b1-4)GlcNAc(b1-4)GlcNAc
How it was run: as §1

[16] = molecular target: Neu5Ac(a2-6)Gal(b1-4)GlcNAc(b1-2)Man(a1-6)[Man(a1-3)]Man(b1-4)GlcNAc(b1-4)GlcNAc
How it was run: as §1

[17] = molecular target: Neu5Ac(a2-6)Gal(b1-4)GlcNAc(b1-2)[Neu5Ac(a2-6)Gal(b1-4)GlcNAc(b1-4)]Man(a1-3)[GlcNAc(b1-4)][Neu5Ac(a2-6)Gal(b1-4)GlcNAc(b1-2)[Neu5Ac(a2-6)Gal(b1-4)GlcNAc(b1-6)]Man(a1-6)]Man(b1-4)GlcNAc(b1-4)GlcNAc
How it was run: as §1

[18] = molecular target: Neu5Ac(a2-6)Gal(b1-4)GlcNAc(b1-2)[Neu5Ac(a2-6)Gal(b1-4)GlcNAc(b1-4)]Man(a1-3)[GlcNAc(b1-4)][Neu5Ac(a2-6)Gal(b1-4)GlcNAc(b1-4)Man(a1-6)]Man(b1-4)GlcNAc(b1-4)GlcNAc
How it was run: as §1

[19] = molecular target: Neu5Ac(a2-6)Gal(b1-4)GlcNAc(b1-2)[Neu5Ac(a2-6)Gal(b1-4)GlcNAc(b1-6)]Man(a1-6)[Neu5Ac(a2-6)Gal(b1-4)GlcNAc(b1-2)Man(a1-3)][GlcNAc(b1-4)]Man(b1-4)GlcNAc(b1-4)GlcNAc
How it was run: as §1

[20] = molecular target: Neu5Ac(a2-6)Gal(b1-4)GlcNAc(b1-3)Gal(b1-3)GlcNAc
How it was run: as §1

[21] = molecular target: Neu5Ac(a2-6)Gal(b1-4)GlcNAc(b1-3)Gal(b1-4)GlcNAc
How it was run: as §1

[22] = molecular target: Neu5Ac(a2-6)Gal(b1-4)GlcNAc(b1-3)Gal(b1-4)GlcNAc(b1-2)Man(a1-3)[Neu5Ac(a2-6)Gal(b1-4)GlcNAc(b1-3)Gal(b1-4)GlcNAc(b1-2)Man(a1-6)]GalNAc
How it was run: as §1

[23] = molecular target: Neu5Ac(a2-6)Gal(b1-4)GlcNAc(b1-3)Gal(b1-4)GlcNAc(b1-3)Gal(b1-4)GlcNAc
How it was run: as §1

[24] = molecular target: Neu5Ac(a2-6)Gal(b1-4)GlcNAc(b1-3)Gal(b1-4)GlcNAc(b1-3)Gal(b1-4)GlcNAc(b1-2)Man(a1-3)[Neu5Ac(a2-6)Gal(b1-4)GlcNAc(b1-3)Gal(b1-4)GlcNAc(b1-3)Gal(b1-4)GlcNAc(b1-2)Man(a1-6)]GalNAc
How it was run: as §1

[25] = molecular target: Neu5Ac(a2-6)Gal(b1-4)GlcNAc(b1-3)Gal(b1-4)GlcNAc(b1-3)GalNAc
How it was run: as §1

[26] = molecular target: Neu5Ac(a2-6)Gal(b1-4)GlcNAc(b1-3)Gal(b1-4)GlcNAc(b1-3)[Neu5Ac(a2-6)Gal(b1-4)GlcNAc(b1-3)Gal(b1-4)GlcNAc(b1-6)]GalNAc
How it was run: as §1

[27] = molecular target: Neu5Ac(a2-6)Gal(b1-4)GlcNAc(b1-3)Gal(b1-4)GlcNAc(b1-6)[Gal(b1-3)]GalNAc
How it was run: as §1

[28] = molecular target: Neu5Ac(a2-6)Gal(b1-4)GlcNAc(b1-3)Gal(b1-4)[Fuc(a1-3)]GlcNAc(b1-3)Gal(b1-4)[Fuc(a1-3)]GlcNAc
How it was run: as §1

[29] = molecular target: Neu5Ac(a2-6)Gal(b1-4)GlcNAc(b1-3)GalNAc
How it was run: as §1

[30] = molecular target: Neu5Ac(a2-6)Gal(b1-4)GlcNAc(b1-3)[Neu5Ac(a2-6)Gal(b1-4)GlcNAc(b1-6)]GalNAc
How it was run: as §1

[31] = molecular target: Neu5Ac(a2-6)Gal(b1-4)GlcNAc(b1-6)GalNAc
How it was run: as §1

[32] = molecular target: Neu5Ac(a2-6)Gal(b1-4)GlcNAc(b1-6)[Gal(b1-3)GlcNAc(b1-3)]Gal(b1-4)Glc
How it was run: as §1

[33] = molecular target: Neu5Ac(a2-6)Gal(b1-4)GlcNAc(b1-6)[Gal(b1-3)]GalNAc
How it was run: as §1

[34] = molecular target: Neu5Ac(a2-6)Gal(b1-4)GlcNAc6S
How it was run: as §1

B1: Gal 12 (Homo sapiens), Q96DT0 (protein)
chain: MSQPSGGRAPGTRIYSWSCPTVMSPGEKLDPIPDSFILQPPVFHPVVPYVTTIFGGLHAGKMVMLQGVVPLDAHRFQVDFQCGCSLCPRPDIAFHFNPRFHTTKPHVICNTLHGGRWQREARWPHLALRRGSSFLILFLFGNEEVKVSVNGQHFLHFRYRLPLSHVDTLGIFGDILVEAVGFLNINPFVEGSREYPAGHPFLLMSPRLEVPCSHALPQGLSPGQVIIVRGLVLQEPKHFTVSLRDQAAHAPVTLRASFADRTLAWISRWGQKKLISAPFLFYPQRFFEVLLLFQEGGLKLALNGQGLGATSMNQQALEQLRELRISGSVQLYCVHS
[1]
  glycan array binding signal (z-score): -0.351
Neu5Ac(a2-6)Gal(b1-4)Glc
  glycan array binding signal (z-score): 0.189
[2]
  glycan array binding signal (z-score): -0.58
[3]
  glycan array binding signal (z-score): -0.623
[4]
  glycan array binding signal (z-score): 0.102
[5]
  glycan array binding signal (z-score): -0.942
[6]
  glycan array binding signal (z-score): -0.036
[7]
  glycan array binding signal (z-score): 0.364
[8]
  glycan array binding signal (z-score): -0.856
[9]
  glycan array binding signal (z-score): 0.174
[10]
  glycan array binding signal (z-score): -0.815
[11]
  glycan array binding signal (z-score): -0.039
[12]
  glycan array binding signal (z-score): 1.24
[13]
  glycan array binding signal (z-score): -0.138
[14]
  glycan array binding signal (z-score): 0.06
[15]
  glycan array binding signal (z-score): -0.369
[16]
  glycan array binding signal (z-score): -0.31
[17]
  glycan array binding signal (z-score): 0.895
[18]
  glycan array binding signal (z-score): 0.922
[19]
  glycan array binding signal (z-score): -1.1
[20]
  glycan array binding signal (z-score): 0.218
[21]
  glycan array binding signal (z-score): -0.893
[22]
  glycan array binding signal (z-score): 0.229
[23]
  glycan array binding signal (z-score): -0.153
[24]
  glycan array binding signal (z-score): 1.05
[25]
  glycan array binding signal (z-score): -0.832
[26]
  glycan array binding signal (z-score): -0.48
[27]
  glycan array binding signal (z-score): -1.34
[28]
  glycan array binding signal (z-score): 1.13
[29]
  glycan array binding signal (z-score): 0.153
[30]
  glycan array binding signal (z-score): -0.362
[31]
  glycan array binding signal (z-score): -1.31
[32]
  glycan array binding signal (z-score): -1.1
[33]
  glycan array binding signal (z-score): -0.246
[34]
  glycan array binding signal (z-score): -0.163

— the supplement of paper PMC8728848
